For 1 molecule, binding results are on record in PMC8085418.

Chains of the proteins cited; added tags and fusions are not shown.
UniProt Q92466: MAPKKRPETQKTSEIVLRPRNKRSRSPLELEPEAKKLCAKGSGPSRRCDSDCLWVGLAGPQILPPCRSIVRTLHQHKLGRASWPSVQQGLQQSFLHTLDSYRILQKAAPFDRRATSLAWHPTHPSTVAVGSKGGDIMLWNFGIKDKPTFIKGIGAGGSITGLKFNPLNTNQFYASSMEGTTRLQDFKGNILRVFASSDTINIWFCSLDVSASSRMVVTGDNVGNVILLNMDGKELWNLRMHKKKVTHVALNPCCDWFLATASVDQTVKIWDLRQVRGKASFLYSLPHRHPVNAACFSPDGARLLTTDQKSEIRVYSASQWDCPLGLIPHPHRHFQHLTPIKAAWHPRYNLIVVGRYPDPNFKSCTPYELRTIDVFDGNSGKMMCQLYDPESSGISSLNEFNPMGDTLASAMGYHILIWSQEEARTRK

No constants are given. Whether binding was seen depends on the method and setting. Binding seen in cells or lysates may run through a third protein. Some binding calls cover weakened binding; strength is not graded here.

The target of this experiment is FLAG-DDB2 (UniProt Q92466). Kind of experiment: co-IP; MEFs transduced with the constructs; immunoprecipitation for the FLAG epitope, then immunoblot; extracts made with 0.1% NP-40, 10% glycerol in PBS. (A western blot detects proteins with antibodies after separation by electrophoresis.)

B1: USP44 (enzyme, UniProt Q8C2S0 1-711)
chain: MDRCKHVEQLQLAQGHSILDPQKWYCMVCNTTESIWACLSCSHVACGKYIQEHALKHFQESSHPVAFEVNDMYAFCYLCNDYVLNDNAAGDLKSLRSTLSTIKSKKYPCVVPSDSVLHPVDAQDRVYSLLDGTQSLPGNEDPTCAALWHRRRVLMGKAFRTWFEQSAIGRKGQEPTQERMVAKREAKRRQQQELEQQMKAELESTPPRKSLRLQGSSEEAATIEIVPVRAPPPPPASPAKDKAALPTSEDRTFKKVSDSLIKRRPMVTPGVTGLRNLGNTCYMNSVLQVLSHLLIFRQCFLKLDLNQWLAVAASDKARSYKHSAVTEAAAQQMNEGQEKEKGFVCSRHSGLSSGLSGGASKGRNMELIQPREPSSPYSSLCHELHILFQVMWSGEWALVSPFAMLHSVWRLIPAFRGYAQQDAQEFLCELLDKIQRELETTGTKLPALIPTSQRRLIEQVLNVVNNIFHGQFLSQVTCLACDNKSDTIESFWDLSLEFPERYQCSGKDAASQPCLVTDMLDKFTETEALEGKIYMCDHCNSKRRKFSSKSVVFTEAQKQLMICHLPQVLRLHLKRFRWSGRNNREKIGVHVVFEETLNMEPYCCRETLNALRPECFLYNLSAVVIHHGKGFGSGHYTAYCYNSEGGFWVHCNDSKLSMCTMEEVRKAQAYILFYTQRVTENGHSKLLPPELLSNSQHPSKETDASSNEVLS
Regarding B1, the binding result is on record as “binds”.
